The experiment has as its target FPRL-1 (Homo sapiens, UniProt P25090). The experiment in a line: compound-induced calcium activity on FLIPR Tetra in CHO-Ga16 cells stably expressing FPRL1. It is filed as cell-based.

Amino acid sequences for entries named in this document (tags omitted).
UniProt P25090, whole entry: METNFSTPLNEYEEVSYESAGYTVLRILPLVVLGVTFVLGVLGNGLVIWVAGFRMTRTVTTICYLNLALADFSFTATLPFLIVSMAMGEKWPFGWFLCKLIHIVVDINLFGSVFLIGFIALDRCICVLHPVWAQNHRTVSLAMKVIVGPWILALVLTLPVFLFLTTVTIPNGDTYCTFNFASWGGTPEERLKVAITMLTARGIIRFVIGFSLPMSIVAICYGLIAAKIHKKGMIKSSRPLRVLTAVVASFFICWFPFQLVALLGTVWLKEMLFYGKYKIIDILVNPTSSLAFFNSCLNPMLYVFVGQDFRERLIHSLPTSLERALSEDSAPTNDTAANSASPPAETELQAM

The structures appear in SMILES notation. Structures were worked out from names or drawings and are uncertain.

Usually EC50 stands for the midpoint of the concentration-response curve.

On to `CC(=O)c1ccc(NC(=O)Nc2ccc3c(c2)C(=O)N(CCc2c[nH]cn2)C(c2ccc(Cl)cn2)C3)cc1` (centres unmarked), for which, where the note is “efficacy value in brackets under EC50”, the “FPRL-1 Ga16-CHO (eff)” value was “(81)”. Also, where the note is “read-out: FPRL-1 Ga16-CHO EC50, tested at 0.61 to 10,000 nM”, the EC50 turned out to be 38.4 nM.
